No constants are given. Whether binding was seen depends on the method and setting. Binding seen in cells or lysates may run through a third protein. Some results given as binding are weak or reduced against the parent protein; the word gives no strength.

By UniProt entry, the sequences of proteins in these tests, tags left out.
UniProt Q06710: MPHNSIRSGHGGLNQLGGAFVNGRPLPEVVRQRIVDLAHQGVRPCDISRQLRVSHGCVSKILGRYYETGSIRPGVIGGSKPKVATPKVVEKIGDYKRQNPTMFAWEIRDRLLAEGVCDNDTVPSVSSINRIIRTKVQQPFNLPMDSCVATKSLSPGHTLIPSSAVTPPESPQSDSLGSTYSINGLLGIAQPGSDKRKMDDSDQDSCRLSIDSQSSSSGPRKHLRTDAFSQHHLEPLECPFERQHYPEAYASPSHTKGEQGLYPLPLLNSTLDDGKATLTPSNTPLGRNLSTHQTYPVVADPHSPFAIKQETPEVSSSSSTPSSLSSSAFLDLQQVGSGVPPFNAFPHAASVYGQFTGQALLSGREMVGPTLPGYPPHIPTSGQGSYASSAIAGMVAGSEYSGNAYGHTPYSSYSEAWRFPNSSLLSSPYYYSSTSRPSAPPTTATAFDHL
UniProt P17844: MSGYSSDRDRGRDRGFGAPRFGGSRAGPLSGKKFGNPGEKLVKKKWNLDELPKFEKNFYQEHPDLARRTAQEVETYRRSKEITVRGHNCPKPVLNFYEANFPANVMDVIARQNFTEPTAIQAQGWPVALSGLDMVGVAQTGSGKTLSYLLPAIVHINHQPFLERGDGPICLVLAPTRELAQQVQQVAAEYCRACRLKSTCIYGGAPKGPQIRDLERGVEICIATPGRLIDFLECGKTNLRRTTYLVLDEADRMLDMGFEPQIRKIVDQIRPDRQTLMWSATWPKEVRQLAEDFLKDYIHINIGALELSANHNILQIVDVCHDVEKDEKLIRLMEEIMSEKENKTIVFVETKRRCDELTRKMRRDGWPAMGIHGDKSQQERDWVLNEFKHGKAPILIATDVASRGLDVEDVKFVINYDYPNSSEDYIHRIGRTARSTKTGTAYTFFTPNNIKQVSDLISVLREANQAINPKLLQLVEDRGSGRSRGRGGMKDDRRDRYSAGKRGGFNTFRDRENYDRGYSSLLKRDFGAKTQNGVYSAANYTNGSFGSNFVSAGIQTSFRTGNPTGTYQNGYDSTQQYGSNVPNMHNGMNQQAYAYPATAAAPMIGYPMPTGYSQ

The target of this test is HA-tagged PAX8 (Paired box 8) (UniProt Q06710). The experiment in a line: co-IP; 293T cells transfected with HA-PAX8 and GFP-DDX5 plasmids, collected 24 h after transfection; immunoprecipitation on antibody beads, SDS-PAGE and Western blot. A general note: A western blot detects proteins with antibodies after separation by electrophoresis.

GFP-DDX5 (from UniProt P17844 1-614): the binding result is listed as “binds”.
